Results as given in article PMC7588057.
No constants are given. Whether binding was seen depends on the method and setting. In cells and extracts the contact can be indirect. Some entries that bind do so weakly or less than the wild type. Where a sequence is shown, tags or fusion partners need not be part of it.

Target: GFP-TRIM5 (tripartite motif-containing protein 5, isoform α), wild type, Q0PF16
Assay: co-IP; lysates of transiently transfected HEK293T cells, IP lysis buffer with 1% NP-40; immunoprecipitation with anti-GFP (for the TRIM5-TAK1 pair also with anti-FLAG), immunoblot; TRIM5-TAK1 also in ULK1, BECN1 and ATG7 knockout HEK293T cells
Details: remark: other sources report otherwise

B1: FLAG-TAK1 (TGFβ-activated kinase 1; MAP3K7), O43318 1-606 (enzyme)
chain: MSTASAASSSSSSSAGEMIEAPSQVLNFEEIDYKEIEVEEVVGRGAFGVVCKAKWRAKDVAIKQIESESERKAFIVELRQLSRVNHPNIVKLYGACLNPVCLVMEYAEGGSLYNVLHGAEPLPYYTAAHAMSWCLQCSQGVAYLHSMQPKALIHRDLKPPNLLLVAGGTVLKICDFGTACDIQTHMTNNKGSAAWMAPEVFEGSNYSEKCDVFSWGIILWEVITRRKPFDEIGGPAFRIMWAVHNGTRPPLIKNLPKPIESLMTRCWSKDPSQRPSMEEIVKIMTHLMRYFPGADEPLQYPCQYSDEGQSNSATSTGSFMDIASTNTSNKSDTNMEQVPATNDTIKRLESKLLKNQAKQQSESGRLSLGASRGSSVESLPPTSEGKRMSADMSEIEARIAATTAYSKPKRGHRKTASFGNILDVPEIVISGNGQPRRRSIQDLTVTGTEPGQVSSRSSSPSVRMITTSGPTSEKPTRSHPWTPDDSTDTNGSDNSIPMAYLTLDHQLQPLAPCPNSKESMAVFEQHCKMAQEYMKVQTEIALLLQRKQELVAELDQDEKDQQNTSRLVQEHKKLLDENKSLSTYYQQCKKQLEVIRSQQQKRQGTS
  binding: binds
